# Source: PubChem BioAssay AID540256 (National Center for Advancing Translational Sciences (NCATS), 2011)
# The whole screen tested about 300,000 compounds, of which about 3,700 (1.2%) were called active. The shares of active, inactive and inconclusive entries below differ from those in the screen. Calls follow the shape of the full dose curve; tested in HEK293 cells. A potency beside an inconclusive call is a rough fit, not a confirmed value.
# Experiment: qHTS for Inhibitors of binding or entry into cells for Lassa Virus; also: nearly all actives have a fitted effect of over 50% in size
# Conditions: Lassa virus pseudotype entry inhibition, cell reporter; activity change, negative = inhibition: at 37.9 µM (top of the series) unless noted
# % is scaled to controls: 0 for no effect and ±100 for the full control effect; potency is read from the fitted curve at half-maximal effect.
Structure (SMILES),Potency,"activity change, negative = inhibition"
Cc1nc(N2CCN(c3ccccc3)CC2)[nH]c(=O)c1Cc1ccccc1,"inconclusive: 6.51 µM [inhibitor, single point]",
COc1ccc(-c2csc(-c3[nH]cnc3N)n2)cc1,inactive,
O=C(NC1CCN(C(=O)N2c3ccccc3Sc3ccccc32)CC1)c1ccco1,"inconclusive: 32.6 µM [inhibitor, single point]",
CN(C)c1ccc(CNC(=O)CN2CCSc3ccc(S(=O)(=O)N(C)C)cc32)cc1,inactive,
CC(C)C(c1nnnn1Cc1ccc2c(c1)OCO2)N1CCN(c2ccccc2)CC1 (centres undefined),"inconclusive: 2.31 µM [inhibitor, single point]",
O=C(COC(=O)c1cc(S(=O)(=O)N2CCCCC2)ccc1N1CCOCC1)c1ccc(F)cc1,"inconclusive: 17.8 µM [inhibitor, partial curve, poor fit]",
Cc1ccc2oc(=O)c(S(=O)(=O)c3ccc(C(C)(C)C)cc3)cc2c1,inactive,
CCN(CC)S(=O)(=O)c1ccc(NC(=O)c2ccc(Sc3nncn3C)c([N+](=O)[O-])c2)cc1,"inconclusive: 31.6 µM [inhibitor, single point]",
CCN1CCN(c2ncc3c(n2)CC(c2ccccc2O)CC3=O)CC1 (centres undefined),"inconclusive: 35.5 µM [inhibitor, single point]",
COc1ccc(OC)c2sc(N(Cc3cccnc3)C(=O)c3ccco3)nc12,inactive,
Cc1cc(NC(=O)CN2C(=O)c3cccnc3Sc3ccccc32)ccc1Br,"inconclusive: 35.5 µM [inhibitor, single point]",
CCc1ccccc1NC(=O)Nc1nnc(N(CC)c2ccccc2)s1,inactive,
CN(C)CCCN(C(=O)c1ccc(S(=O)(=O)N2CCCCCC2)cc1)c1nc2ccc(Br)cc2s1,"inconclusive: 35.5 µM [inhibitor, single point]",
Cc1cc(C)cc(Oc2nc3c(C)cccn3c(=O)c2/C=C(\C#N)c2nc3ccccc3s2)c1,inactive,
Cc1cc(C)c(NC(=O)CSc2nc(=O)n(CCN3CCOCC3)c3c2CCCC3)c(C)c1,"inconclusive: 12.6 µM [inhibitor, partial curve, poor fit]",
COCCCN(C(=O)CCOc1ccc(C)cc1)c1c(N)n(Cc2ccccc2)c(=O)[nH]c1=O,"inconclusive: 7.94 µM [inhibitor, partial curve, poor fit]",
CCc1ccc(C(=O)c2cn(Cc3ccc(F)cc3)c3cc(OC)c(OC)cc3c2=O)cc1,"inconclusive: 35.5 µM [inhibitor, single point]",
Cc1cc(C)cc(OCC(=O)OCC(=O)Nc2cc(S(=O)(=O)N3CCOCC3)ccc2C)c1,"inconclusive: 2.82 µM [inhibitor, partial curve, poor fit]",
COc1ccc(NC(=O)CS(=O)c2ccccc2Cl)cc1 (centres undefined),inactive,
CCCCOC(=O)CSC(=S)N(C)Cc1cccs1,"inconclusive: 8.2 µM [activator, partial curve, poor fit]",
COc1ccc(N2CCN(C(=O)CCc3c[nH]c4ccccc34)CC2)cc1,"inconclusive: 14.1 µM [inhibitor, partial curve]",
CCOc1cc(C2C3=C(CCCC3=O)NC3=C2C(=O)CCC3)cc(Cl)c1O,"inconclusive: 0.794 µM [inhibitor, partial curve, poor fit]",

Structure (SMILES),Potency,"activity change, negative = inhibition"
COc1ccc(Cl)cc1NC(=O)C1CCN(C(=O)C2CC(=O)N(c3ccc(C)cc3)C2)CC1 (centres undefined),"inconclusive: 35.5 µM [inhibitor, single point]",
COc1ccc(CCNC(=O)CCn2c(=O)c3ccccc3n(Cc3ccccc3)c2=O)cc1OC,inactive,
FC(F)(F)c1ccccc1NC(=S)N1CCCC1,,inconclusive: 36.6% [activator]
COc1cc(CCN2C(=O)N[C@@H](c3cccc(C(F)(F)F)c3)C(C(C)=O)=C2C)cc(OC)c1OC,"inconclusive: 23.1 µM [inhibitor, single point]",
CCN(CC)Cc1ccccc1Sc1ccccc1,"inconclusive: 4.11 µM [inhibitor, partial curve, poor fit]",
COc1ccc(-n2cnc3cc(NCc4ccco4)ccc32)cc1,"inconclusive: 9.2 µM [inhibitor, partial curve, poor fit]",
CCCn1nc2ccccc2c1P(=N)(N1CCOCC1)N1CCOCC1,inactive,
CCOC(=O)Cc1csc(NC(=O)CSc2ncnc3c2cnn3-c2ccccc2Cl)n1,"inconclusive: 25.1 µM [inhibitor, single point]",
Nc1cccc2cccc([N+](=O)[O-])c12,inactive,
Cn1cc(C(=O)NCc2ccccc2)c2ccccc21,inactive,
COC(=O)c1cc(C(=O)Nc2cc(C)ccn2)cc([N+](=O)[O-])c1,"inconclusive: 4.47 µM [activator, partial curve]",
CNCc1c(OCc2ccc(F)cc2)ccc2ccccc12,"inconclusive: 35.5 µM [inhibitor, single point]",
CC(=O)c1sc(NC(=O)c2ccccc2F)nc1-c1ccccc1,inactive,
COc1cc(OC)c(NS(=O)(=O)c2c(C(=O)N3CCC(C)CC3)c(C)n(C)c2C)cc1Cl,inactive,
CC(C)[C@H](NC(N)=O)C(=O)Nc1ccc(Oc2ccccc2)cc1,"inconclusive: 35.5 µM [inhibitor, single point]",
Cc1cc2nc(-c3ccc(NC(=O)c4cc5ccccc5o4)cc3)oc2cc1C,"inconclusive: 31.6 µM [activator, single point]",
C=CCc1cc(Cl)ccc1OCCOCCNCCOC,inactive,
O=C(NCc1ccco1)c1ccc2c(c1)N(Cc1ccc(Cl)cc1)C(=O)c1ccccc1S2,inactive,
O=C(Nc1sc2c(c1C(=O)O)CCCC2)c1ccc(Cl)cc1,active: 7.94 µM,
COC(C#CCCN(C)C)(c1ccccc1)c1ccccc1,"inconclusive: 6.31 µM [inhibitor, partial curve, poor fit]",
CCN(CC)S(=O)(=O)c1ccc(NC(=O)c2c(-c3ccccc3)noc2C)cc1,"inconclusive: 29.1 µM [inhibitor, single point]",
O=C(Nc1ccc(F)cc1)Nc1cc(OCC(F)(F)F)cc(OCC(F)(F)F)c1,active: 18.4 µM,
